Laboratory results as given in article PMC5233953.
These are yes or no findings as the source states them, for the method shown.

Target: FrpC_(1-414), the N-terminal domain of FrpC (Neisseria meningitidis) (UniProt P55127)
Experiment: SEC; Superdex 200 HR column; free proteins and an equimolar mixture of purified FrpD and FrpC_(1-414); both purified

B1: FrpC_(1-414), the N-terminal domain of FrpC (domain or fragment, UniProt P55127 1-414)
chain: MNEGEVVLTPEQIQTLRGYASRGDTYGGWRYLANLGDRYADNAAAIVGKDTNLNGLNLWMKKGVENLWDDTVGKKTRLEKFDRVALQHFSQYVDLINKNNGRLPNTSEIERSYYKAVTYHGVSSSAAIDLVINRSLPDMADGYWALGLGIEAERIHNEQAVNNPNGSERDNRKQLISALDKGFDGSFKEKHFTFLQSVMMDLTKLGVEYTIDGWQKIGGWGNGIINDLYKSVVKREWTGIFEIVNNNIKQGNEAFKNEINSLVHDMKAAGKEFGDDLNTQWNNLTQAAEIIYNDIVDNTSQGIEKGVKAIKELSEKMKNAASDLADGSAEKAKQVVEDLAQAAKEAYENAKSTAEKAAQAAREFFKGLPSFKDLAEKFRDLFPNPEGWIDDGHQCFAPWVKETKKRNGKYHVYD
  binding: no binding
